Data published in patent US8815007B2, “Alkoxylated polyamines and polyetheramine polyol compositions for foam control” (priority 2007, dated 2014).

Experiment: ASTM-D3519 blender foam test (foam suppression)
Details: for Foam Height, Initial: 25° C., blender 30 seconds
[1] = Table 4, 0.2 wt. % compound as 50 wt. % solution in 2-Ethylhexanol
[2] = Table 1, 0.2 wt. % compound added as 50 wt. % solution in 2-ethylhexanol
[3] = Table 1, 0.2 wt. % compound as 50 wt. % solution in 2-ethylhexanol

| Substance | minutes to no foam (Table 4, 0.2 wt. %) | Foam Height, Initial [1] [cm] | Foam Height, Initial [2] [cm] | minutes to no foam [3] | Foam Height, 5 min (Table 4, 0.2 wt. %) [cm] | Foam Height, 5 min [3] [cm] | Foam Height, 10 min [3] [cm] | Foam Height, 10 min (Table 4, 0.2 wt. %) [cm] |
| --- | --- | --- | --- | --- | --- | --- | --- | --- |
| 2:1/Epoxyoctane/Polyoxypropylene Diamine Adduct [Example 8] | 5 minutes to no foam | 1.4 |  |  |  |  |  |  |
| diethylenetriamine/2 mol 1-epoxyoctane adduct [Example 2] |  |  | 1.4 | 3 minutes to no foam |  |  |  |  |
| 2:1/Epoxydodecane/Polyoxypropylene Diamine Adduct [Example 11] | 7 minutes to no foam | 1.9 |  |  | 0.4 |  |  |  |
| The 2:1 isobutyl glycidyl ether adduct of diethylenetriamine [Comparative Example 2, reference compound] |  |  | 2.2 | 13 minutes to no foam |  | 0.9 | 0.4 |  |
| 2:1 Epoxyhexane/Polyoxypropylene Diamine Adduct [Example 7] | 7 minutes to no foam | 2.5 |  |  | 0.5 |  |  |  |
| 2:1/2-Ethylhexyl glycidyl ether/Polyoxypropylene Diamine Adduct [Example 12] | 10 minutes to no foam | 2.4 |  |  | 0.6 |  |  |  |
| 4:1/Epoxyoctane/Polyoxypropylene Diamine Adduct [Example 9] |  | 2.8 |  |  | 1.1 |  |  | 0.2 |
| 2:1/Epoxydecane/Polyoxypropylene Diamine Adduct [Example 10] | 8 minutes to no foam | 2.0 |  |  | 0.6 |  |  |  |
| The 2:1 2-ethylhexyl glycidyl ether adduct of diethylenetriamine [Comparative Example 1, reference compound] |  |  | 2.0 | 8 minutes to no foam |  | 0.3 |  |  |
